Measurements taken from paper doi:10.1101/2022.06.27.497698.

The sequences below were run on RsmQ (Pseudomonas fluorescens SBW25 plasmid pQBR103) (assay: SPR). Conditions: not given.

Sequence | binding result
ATGGACGTCGCGCAGGAAGCGCAAACCTACCCTACGTCCTCCTGC [RsmY_1to25] | binds
CAAGACACCACAGAGCAGCACCTACCCTACGTCCTCCTGC [NoBind_NoHP_RC] | no binding
CAAGACACCCCAGAGCAGCACCTACCCTACGTCCTCCTGC [NoBind_NoHP_RC_2] | no binding
GCCCTGTGTCCACGGATTGGCACAACCTACCCTACGTCCTCCTGC [RsmZ_26to50] | binds

Same assay, conditions: 100 nM RsmQ

Sequence | binding result
CCGCGCACCAAGCGCAAACCCTACCCTACGTCCTCCTGC [NoBind_HP_RC] | no binding
CCGCGCACCCAGCGCAAACCCTACCCTACGTCCTCCTGC [NoBind_HP_RC_2] | no binding
CCGCGCACCGAAGCGCAAACCCTACCCTACGTCCTCCTGC [FullBind_ACCGA_HP] | binds more weakly
CCGCGCACGAAGCGCAAACCCTACCCTACGTCCTCCTGC [Bind_CGA_HP] | binds more weakly
CCGCGCACGCAAGCGCAAACCCTACCCTACGTCCTCCTGC [FullBind_ACGCA_HP] | binds more weakly
CCGCGCACGGAAGCGCAAACCCTACCCTACGTCCTCCTGC [Full_Bind_HP_RC] | binds
CCGCGCACGGCAGCGCAAACCCTACCCTACGTCCTCCTGC [FullBind_ACGGC_HP] | binds more weakly
CCGCGCACGGTAGCGCAAACCCTACCCTACGTCCTCCTGC [FullBind_ACGGT_HP] | binds more weakly
CCGCGCACGTAAGCGCAAACCCTACCCTACGTCCTCCTGC [FullBind_ACGTA_HP] | binds more weakly
CCGCGCACTGAAGCGCAAACCCTACCCTACGTCCTCCTGC [FullBind_ACTGA_HP] | binds more weakly
CCGCGCAGCAAGCGCAAACCCTACCCTACGTCCTCCTGC [Bind_GCA_HP] | binds more weakly
CCGCGCAGGAAGCGCAAACCCTACCCTACGTCCTCCTGC [Bind_HP_RC] | binds
CCGCGCAGGCAGCGCAAACCCTACCCTACGTCCTCCTGC [Bind_GGC_HP] | binds more weakly
CCGCGCAGGTAGCGCAAACCCTACCCTACGTCCTCCTGC [Bind_GGT_HP] | binds more weakly
CCGCGCAGTAAGCGCAAACCCTACCCTACGTCCTCCTGC [Bind_GTA_HP] | binds more weakly
CCGCGCATGAAGCGCAAACCCTACCCTACGTCCTCCTGC [Bind_TGA_HP] | binds more weakly

Same assay, conditions: quickly dissociated

Sequence | binding result
CAGGAACGGACAGAGCCCTACCCTACGTCCTCCTGC [Full_Bind_NoHP_RC] | binds more weakly
CAGGACAGGACAGAGCCCTACCCTACGTCCTCCTGC [Bind_NoHP_RC] | binds more weakly

Same assay, conditions: slight preference, 100 nM RsmQ

Sequence | binding result
CCGCGCAGGGAAGCGCAAACCCTACCCTACGTCCTCCTGC [FullBind_AGGGA_HP] | binds
CCGCGCATGGAAGCGCAAACCCTACCCTACGTCCTCCTGC [FullBind_ATGGA_HP] | binds

These sequences were tested on RsmQ H43A (Pseudomonas fluorescens SBW25 plasmid pQBR103) (assay: SPR). Conditions: 100 nM protein.

Sequence | binding result
CCGCGCACGGAAGCGCAAACCCTACCCTACGTCCTCCTGC [Full_Bind_HP_RC] | binds more weakly
CCGCGCAGGAAGCGCAAACCCTACCCTACGTCCTCCTGC [Bind_HP_RC] | binds more weakly

Each sequence was assayed on RsmQ R44A (Pseudomonas fluorescens SBW25 plasmid pQBR103) (assay: SPR). Conditions: 100 nM protein.

Sequence | binding result
CCGCGCACGGAAGCGCAAACCCTACCCTACGTCCTCCTGC [Full_Bind_HP_RC] | binds more weakly
CCGCGCAGGAAGCGCAAACCCTACCCTACGTCCTCCTGC [Bind_HP_RC] | binds more weakly

The exact form of at least one protein or probe is not confirmed. For some of these results: No signal at the amounts used counts as a negative. At least one verdict rests on a figure or table, not on a statement of the authors. Weaker means in comparison with the reference protein, sequence or condition of that experiment.
